These are yes or no findings as the source states them, for the method shown. Some results given as binding are weak or reduced against the parent protein; the word gives no strength.
T1: cognate myosin heavy chain fragment (comprising residues 709-840) (UniProt P05661)
T1 sequence: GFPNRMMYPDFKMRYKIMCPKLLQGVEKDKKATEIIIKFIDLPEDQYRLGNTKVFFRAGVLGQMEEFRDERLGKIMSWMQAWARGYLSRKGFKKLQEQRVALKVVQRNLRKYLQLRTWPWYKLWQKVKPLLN


Molecular target: T1, cognate myosin heavy chain fragment (comprising residues 709-840)
Assay: co-expression and co-purification

binding | Binder
binds | Mlc2 (myosin light chain) (protein, UniProt P18432 1-222) MADEKKKVKKKKTKEEGGTSETASEAASEAATPAPAATPAPAASATGSKRASGGSRGSRKSKRAGSSVFSVFSQKQIAEFKEAFQLMDADKDGIIGKNDLRAAFDSVGKIANDKELDAMLGEASGPINFTQLLTLFANRMATSGANDEDEVVIAAFKTFDNDGLIDGDKFREMLMNFGDKFTMKEVDDAYDQMVIDDKNQIDTAALIEMLTGKGEEEEEEAA
binds | Mlc1 (myosin light chain) (protein, UniProt P06742 1-155) MADVPKREVENVEFVFEVMGSPGEGIDAVDLGDALRALNLNPTLALIEKLGGTKKRNEKKIKLDEFLPIYSQVKKEKEQGCYEDFIECLKLYDKEENGTMLLAELQHALLALGESLDDEQVETLFADCMDPEDDEGFIPYSQFVQRLMSDPVVFD

From paper doi:10.1101/2024.09.30.615857
